The source of these data is article PMC4226561.

No constants are given. Whether binding was seen depends on the method and setting. Some binding calls cover weakened binding; strength is not graded here. Tags and fused reporters may be left off the sequences shown.

The target of assay [1] is T1, CESA8 (cellulose synthase, secondary cell wall), MbYTH fusion (Arabidopsis thaliana) (UniProt Q8LPK5).
T1 sequence: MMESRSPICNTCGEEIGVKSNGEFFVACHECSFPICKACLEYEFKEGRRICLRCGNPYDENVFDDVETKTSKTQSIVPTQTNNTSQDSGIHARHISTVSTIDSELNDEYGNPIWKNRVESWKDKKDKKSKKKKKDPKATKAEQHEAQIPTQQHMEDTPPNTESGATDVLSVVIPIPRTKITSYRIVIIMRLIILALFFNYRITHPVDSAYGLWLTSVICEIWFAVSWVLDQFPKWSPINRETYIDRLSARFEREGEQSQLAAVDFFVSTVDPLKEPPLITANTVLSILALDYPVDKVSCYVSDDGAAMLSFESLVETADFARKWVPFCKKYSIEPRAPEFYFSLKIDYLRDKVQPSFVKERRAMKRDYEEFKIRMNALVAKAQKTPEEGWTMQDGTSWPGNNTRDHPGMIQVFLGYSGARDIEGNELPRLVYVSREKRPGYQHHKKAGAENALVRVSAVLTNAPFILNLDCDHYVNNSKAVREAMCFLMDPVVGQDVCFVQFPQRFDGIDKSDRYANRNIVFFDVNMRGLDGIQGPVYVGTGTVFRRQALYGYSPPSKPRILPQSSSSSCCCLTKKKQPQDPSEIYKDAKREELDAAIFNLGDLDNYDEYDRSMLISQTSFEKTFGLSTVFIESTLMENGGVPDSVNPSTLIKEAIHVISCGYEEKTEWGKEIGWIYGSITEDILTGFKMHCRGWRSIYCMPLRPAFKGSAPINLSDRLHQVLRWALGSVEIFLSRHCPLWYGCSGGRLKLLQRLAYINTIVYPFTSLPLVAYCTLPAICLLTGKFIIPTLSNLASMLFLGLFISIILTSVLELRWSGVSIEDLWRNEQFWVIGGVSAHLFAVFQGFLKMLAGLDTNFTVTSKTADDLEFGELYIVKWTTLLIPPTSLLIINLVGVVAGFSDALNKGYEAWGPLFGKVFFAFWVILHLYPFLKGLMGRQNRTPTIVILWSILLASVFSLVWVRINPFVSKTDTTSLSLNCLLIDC
Put plainly: two-hybrid; split-ubiquitin membrane-based yeast two-hybrid (MbYTH) in S. cerevisiae NMY51; bait fused to Cub-TF, prey to NubG; 100 colonies of each combination spotted on selective medium with 3-AT, 30°C, three days, grown spots counted; called 'in vitro' by the paper.

In assay [2] the target is T2, CESA1 (cellulose synthase, primary cell wall), MbYTH fusion (Arabidopsis thaliana) (UniProt O48946).
T2 sequence: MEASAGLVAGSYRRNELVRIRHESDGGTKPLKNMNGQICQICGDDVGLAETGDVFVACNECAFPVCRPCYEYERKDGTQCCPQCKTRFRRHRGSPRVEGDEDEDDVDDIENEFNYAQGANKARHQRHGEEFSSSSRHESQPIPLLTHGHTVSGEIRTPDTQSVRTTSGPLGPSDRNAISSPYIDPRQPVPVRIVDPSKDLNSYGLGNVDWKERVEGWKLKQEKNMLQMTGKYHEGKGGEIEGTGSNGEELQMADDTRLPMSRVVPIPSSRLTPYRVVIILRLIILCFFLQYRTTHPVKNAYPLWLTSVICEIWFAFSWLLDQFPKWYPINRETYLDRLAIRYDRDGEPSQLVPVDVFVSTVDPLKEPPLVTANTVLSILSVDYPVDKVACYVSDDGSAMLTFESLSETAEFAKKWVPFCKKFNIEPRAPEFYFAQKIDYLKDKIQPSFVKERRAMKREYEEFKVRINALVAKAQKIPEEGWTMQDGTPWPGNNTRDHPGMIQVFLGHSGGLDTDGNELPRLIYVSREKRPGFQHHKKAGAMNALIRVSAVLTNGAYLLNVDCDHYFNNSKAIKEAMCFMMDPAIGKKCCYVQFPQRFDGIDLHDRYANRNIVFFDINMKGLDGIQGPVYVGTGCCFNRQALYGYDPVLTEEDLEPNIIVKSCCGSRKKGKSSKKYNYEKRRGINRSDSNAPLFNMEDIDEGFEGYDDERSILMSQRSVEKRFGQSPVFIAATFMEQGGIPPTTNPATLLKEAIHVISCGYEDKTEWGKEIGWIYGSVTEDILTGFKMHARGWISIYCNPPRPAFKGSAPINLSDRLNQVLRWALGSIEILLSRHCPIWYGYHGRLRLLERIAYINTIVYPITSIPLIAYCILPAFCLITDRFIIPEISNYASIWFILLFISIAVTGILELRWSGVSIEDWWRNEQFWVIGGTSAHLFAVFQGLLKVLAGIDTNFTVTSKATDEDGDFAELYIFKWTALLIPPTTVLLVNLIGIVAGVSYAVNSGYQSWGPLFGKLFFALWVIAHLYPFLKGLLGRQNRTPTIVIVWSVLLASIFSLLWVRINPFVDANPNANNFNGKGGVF
The assay is described as above.

B1: KOR1NOTMD, KOR1 without the transmembrane domain (AA 1 to 69+95 to 621), MbYTH prey (domain or fragment, UniProt Q38890)
chain: MYGRDPWGGPLEINTADSATDDDRSRNLNDLDRAALSRPLDETQQSWLLGPTEQKKKKYVDLGCIIVSRTVPRHHPKTPPPDNYTIALHKALKFFNAQKSGKLPKHNNVSWRGNSGLQDGKGETGSFYKDLVGGYYDAGDAIKFNFPMAYAMTMLSWSVIEYSAKYEAAGELTHVKELIKWGTDYFLKTFNSTADSIDDLVSQVGSGNTDDGNTDPNDHYCWMRPEDMDYKRPVTTCNGGCSDLAAEMAAALASASIVFKDNKEYSKKLVHGAKVVYQFGRTRRGRYSAGTAESSKFYNSSMYWDEFIWGGAWMYYATGNVTYLNLITQPTMAKHAGAFWGGPYYGVFSWDNKLAGAQLLLSRLRLFLSPGYPYEEILRTFHNQTSIVMCSYLPIFNKFNRTNGGLIELNHGAPQPLQYSVNAAFLATLYSDYLDAADTPGWYCGPNFYSTSVLRDFARSQIDYILGKNPRKMSYVVGFGTKYPRHVHHRGASIPKNKVKYNCKGGWKWRDSKKPNPNTIEGAMVAGPDKRDGYRDVRMNYNYTEPTLAGNAGLVAALVALSGEEEATGKIDKNTIFSAVPPLFPTPPPPPAPWKP
As to B1, the binding entry in assay [1] and in assay [2] was “no binding” throughout.

B2: KOR1N, N-terminal part of KOR1 with the transmembrane domain (AA 1 to 94), MbYTH fusion (domain or fragment, UniProt Q38890 1-94)
chain: MYGRDPWGGPLEINTADSATDDDRSRNLNDLDRAALSRPLDETQQSWLLGPTEQKKKKYVDLGCIIVSRKIFVWTVGTLVAAALLAGFITLIVK
Consider B2, for which the binding entry in assay [1] and in assay [2] was “binds” in each case.

B3: KORRIGAN1 (KOR1), complete protein (AA 1 to 621), MbYTH fusion (protein, UniProt Q38890 1-621)
chain: MYGRDPWGGPLEINTADSATDDDRSRNLNDLDRAALSRPLDETQQSWLLGPTEQKKKKYVDLGCIIVSRKIFVWTVGTLVAAALLAGFITLIVKTVPRHHPKTPPPDNYTIALHKALKFFNAQKSGKLPKHNNVSWRGNSGLQDGKGETGSFYKDLVGGYYDAGDAIKFNFPMAYAMTMLSWSVIEYSAKYEAAGELTHVKELIKWGTDYFLKTFNSTADSIDDLVSQVGSGNTDDGNTDPNDHYCWMRPEDMDYKRPVTTCNGGCSDLAAEMAAALASASIVFKDNKEYSKKLVHGAKVVYQFGRTRRGRYSAGTAESSKFYNSSMYWDEFIWGGAWMYYATGNVTYLNLITQPTMAKHAGAFWGGPYYGVFSWDNKLAGAQLLLSRLRLFLSPGYPYEEILRTFHNQTSIVMCSYLPIFNKFNRTNGGLIELNHGAPQPLQYSVNAAFLATLYSDYLDAADTPGWYCGPNFYSTSVLRDFARSQIDYILGKNPRKMSYVVGFGTKYPRHVHHRGASIPKNKVKYNCKGGWKWRDSKKPNPNTIEGAMVAGPDKRDGYRDVRMNYNYTEPTLAGNAGLVAALVALSGEEEATGKIDKNTIFSAVPPLFPTPPPPPAPWKP
In the case of B3, the binding entry in assay [1] and in assay [2] was “binds” throughout.

Consider KIFVWTVGTLVAAALLAGFITLIVK (domain or fragment, UniProt Q38890 70-94) [KOR1TMD, only the transmembrane domain of KOR1 (AA 70 to 94), MbYTH fusion], for which the binding result in assay [1] and in assay [2] was “binds” in each case.

B4: KOR1C, transmembrane domain plus the C-terminal part of KOR1 (AA 70 to 621), MbYTH fusion (domain or fragment, UniProt Q38890 70-621)
chain: KIFVWTVGTLVAAALLAGFITLIVKTVPRHHPKTPPPDNYTIALHKALKFFNAQKSGKLPKHNNVSWRGNSGLQDGKGETGSFYKDLVGGYYDAGDAIKFNFPMAYAMTMLSWSVIEYSAKYEAAGELTHVKELIKWGTDYFLKTFNSTADSIDDLVSQVGSGNTDDGNTDPNDHYCWMRPEDMDYKRPVTTCNGGCSDLAAEMAAALASASIVFKDNKEYSKKLVHGAKVVYQFGRTRRGRYSAGTAESSKFYNSSMYWDEFIWGGAWMYYATGNVTYLNLITQPTMAKHAGAFWGGPYYGVFSWDNKLAGAQLLLSRLRLFLSPGYPYEEILRTFHNQTSIVMCSYLPIFNKFNRTNGGLIELNHGAPQPLQYSVNAAFLATLYSDYLDAADTPGWYCGPNFYSTSVLRDFARSQIDYILGKNPRKMSYVVGFGTKYPRHVHHRGASIPKNKVKYNCKGGWKWRDSKKPNPNTIEGAMVAGPDKRDGYRDVRMNYNYTEPTLAGNAGLVAALVALSGEEEATGKIDKNTIFSAVPPLFPTPPPPPAPWKP
For B4, the binding result in assay [1] and in assay [2] was “binds” each time.
